No constants are given. Whether binding was seen depends on the method and setting. A result given as binding can be weak or reduced; the word gives no strength. For part of these data: Sequences can lack the tags named with a protein. For part of these data: In cells and extracts the contact can be indirect.

The target of test [1] is 3XFLAG-epitope-tagged RBM7 (RNA-binding motif protein 7). Put plainly: co-IP; anti-FLAG M2 affinity gel on whole-cell extracts of HEK293 Flp-In T-REx cells expressing the 3XFLAG-tagged bait (tetracycline 16 h); buffer C (20 mM Tris-HCl, 0.5% NP-40, 150 mM NaCl, 1.5 mM MgCl2, 10 mM KCl, 10% glycerol, 0.5 mM EDTA, pH 7.9), 4 h at 4°C; cells exposed to DMSO or 10 μM 4-NQO (2 h unless noted), in some panels RBM7 siRNA or washout; western blot. A general note: Immunoblotting shows a protein as a band on a membrane.

Test [2] has as its target maltose-binding protein (MBP)-tagged RBM7. Put plainly: pull-down; MBP pull-down: 10 μg MBP or MBP-RBM7 with 25 μg prey protein in 100 μL binding buffer (20 mM HEPES pH 7.6, 150 mM NaCl, 1 mM TCEP), amylose beads, 2 h at 4°C, eluted with 30 mM maltose; Coomassie-stained gels; both purified.
Test [3] addresses mRNP1 mutant maltose-binding protein (MBP)-tagged RBM7. The description is as above.

B1: MePCE (7SK γ-methylphosphate capping enzyme), endogenous (protein, UniProt Q7L2J0 1-689)
chain: MIEMAAEKEPFLVPAPPPPLKDESGGGGGPTVPPHQEAASGELRGGTERGPGRCAPSAGSPAAAVGRESPGAAATSSSGPQAQQHRGGGPQAQSHGEARLSDPPGRAAPPDVGEERRGGGGTELGPPAPPRPRNGYQPHRPPGGGGGKRRNSCNVGGGGGGFKHPAFKRRRRVNSDCDSVLPSNFLLGGNIFDPLNLNSLLDEEVSRTLNAETPKSSPLPAKGRDPVEILIPKDITDPLSLNTCTDEGHVVLASPLKTGRKRHRHRGQHHQQQQAAGGSESHPVPPTAPLTPLLHGEGASQQPRHRGQNRDAPQPYELNTAINCRDEVVSPLPSALQGPSGSLSAPPAASVISAPPSSSSRHRKRRRTSSKSEAGARGGGQGSKEKGRGSWGGRHHHHHPLPAAGFKKQQRKFQYGNYCKYYGYRNPSCEDGRLRVLKPEWFRGRDVLDLGCNVGHLTLSIACKWGPSRMVGLDIDSRLIHSARQNIRHYLSEELRLPPQTLEGDPGAEGEEGTTTVRKRSCFPASLTASRGPIAAPQVPLDGADTSVFPNNVVFVTGNYVLDRDDLVEAQTPEYDVVLCLSLTKWVHLNWGDEGLKRMFRRIYRHLRPGGILVLEPQPWSSYGKRKTLTETIYKNYYRIQLKPEQFSSYLTSPDVGFSSYELVATPHNTSKGFQRPVYLFHKARSPSH
For the molecule B1, in test [1], the binding result is recorded as “binds”.

B2: LARP7, endogenous (protein, UniProt Q4G0J3 1-582)
chain: METESGNQEKVMEEESTEKKKEVEKKKRSRVKQVLADIAKQVDFWFGDANLHKDRFLREQIEKSRDGYVDISLLVSFNKMKKLTTDGKLIARALRSSAVVELDLEGTRIRRKKPLGERPKDEDERTVYVELLPKNVNHSWIERVFGKCGNVVYISIPHYKSTGDPKGFAFVEFETKEQAAKAIEFLNNPPEEAPRKPGIFPKTVKNKPIPALRVVEEKKKKKKKKGRMKKEDNIQAKEENMDTSNTSISKMKRSRPTSEGSDIESTEPQKQCSKKKKKRDRVEASSLPEVRTGKRKRSSSEDAESLAPRSKVKKIIQKDIIKEASEASKENRDIEISTEEEKDTGDLKDSSLLKTKRKHKKKHKERHKMGEEVIPLRVLSKSEWMDLKKEYLALQKASMASLKKTISQIKSESEMETDSGVPQNTGMKNEKTANREECRTQEKVNATGPQFVSGVIVKIISTEPLPGRKQVRDTLAAISEVLYVDLLEGDTECHARFKTPEDAQAVINAYTEINKKHCWKLEILSGDHEQRYWQKILVDRQAKLNQPREKKRGTEKLITKAEKIRLAKTQQASKHIRFSEYD
Take B2: the binding result in test [1] is “binds”.

B3: GST-tagged LARP7 (protein, UniProt Q4G0J3 1-582)
chain: METESGNQEKVMEEESTEKKKEVEKKKRSRVKQVLADIAKQVDFWFGDANLHKDRFLREQIEKSRDGYVDISLLVSFNKMKKLTTDGKLIARALRSSAVVELDLEGTRIRRKKPLGERPKDEDERTVYVELLPKNVNHSWIERVFGKCGNVVYISIPHYKSTGDPKGFAFVEFETKEQAAKAIEFLNNPPEEAPRKPGIFPKTVKNKPIPALRVVEEKKKKKKKKGRMKKEDNIQAKEENMDTSNTSISKMKRSRPTSEGSDIESTEPQKQCSKKKKKRDRVEASSLPEVRTGKRKRSSSEDAESLAPRSKVKKIIQKDIIKEASEASKENRDIEISTEEEKDTGDLKDSSLLKTKRKHKKKHKERHKMGEEVIPLRVLSKSEWMDLKKEYLALQKASMASLKKTISQIKSESEMETDSGVPQNTGMKNEKTANREECRTQEKVNATGPQFVSGVIVKIISTEPLPGRKQVRDTLAAISEVLYVDLLEGDTECHARFKTPEDAQAVINAYTEINKKHCWKLEILSGDHEQRYWQKILVDRQAKLNQPREKKRGTEKLITKAEKIRLAKTQQASKHIRFSEYD
For B3, the binding entry in test [2] and in test [3] was “binds” throughout.

B4: GST-tagged catalytic domain of MePCE (cMePCE; residues 400-689) (domain or fragment, UniProt Q7L2J0 400-689)
chain: PLPAAGFKKQQRKFQYGNYCKYYGYRNPSCEDGRLRVLKPEWFRGRDVLDLGCNVGHLTLSIACKWGPSRMVGLDIDSRLIHSARQNIRHYLSEELRLPPQTLEGDPGAEGEEGTTTVRKRSCFPASLTASRGPIAAPQVPLDGADTSVFPNNVVFVTGNYVLDRDDLVEAQTPEYDVVLCLSLTKWVHLNWGDEGLKRMFRRIYRHLRPGGILVLEPQPWSSYGKRKTLTETIYKNYYRIQLKPEQFSSYLTSPDVGFSSYELVATPHNTSKGFQRPVYLFHKARSPSH
On to B4, for which the binding result in test [2] and in test [3] was “binds” each time.

These data come from article PMC6482433.
